Experimental data: paper PMC6713165, “Identification of 1H-pyrazolo[3,4-b]pyridine derivatives as potent ALK-L1196M inhibitors” (Journal of Enzyme Inhibition and Medicinal Chemistry, 2019)
Like-named read-outs stand apart in the source and are kept apart here.

Assay: Permeability assessment using Caco-2 cells
Type: in vitro ADME
Settings: human
Experimental: Stock solutions (10 mM) of reference compounds and 10g were diluted to a concentration of 10 µM with the transport buffer (HBSS + 1%BSA) and the test compounds were applied to the apical or basolateral side of the cell monolayer. Permeability of the test compounds from A to B direction or B to A direction was assessed in duplicate over a 120 min incubation at 37 °C and 5% CO2 with a relative humidity of 95%. In addition, the efflux ratio of each compound was also determined. Reference compounds and 10g were quantified by LC-MS/MS analysis based on the peak area ratio of analyte/the internal standard.

Papp A→B at 120 min, 10 µM (Caco-2, Caco-2, 10 µM, 120 min, 37 °C, HBSS + 1%BSA, read-out: Mean Papp A to B): 1.69 ×10⁻⁶ cm/s
recovery at 120 min, 10 µM (Caco-2, Caco-2, 10 µM, 120 min, read-out: Mean recovery % A to B): 92.6%
recovery at 120 min, 10 µM (Caco-2, Caco-2, 10 µM, 120 min, read-out: Mean recovery % B to A): 91.6%
Papp A→B at 120 min, 10 µM (Caco-2, Caco-2 permeability class from Papp (A to B), read-out: Rank Papp): < 2.5 ×10⁻⁶ cm/s
efflux ratio at 120 min, 10 µM (Caco-2, 10 µM, 120 min): 1.27
Papp B→A at 120 min, 10 µM (Caco-2, 10 µM, 120 min, 37 °C, HBSS + 1%BSA): 2.14 ×10⁻⁶ cm/s
SMILES: CC(C)NCC(O)COc1ccc(CC(N)=O)cc1 (stereo not drawn) [Atenolol]
